Some results were stated once for a whole list of compounds, not compound by compound.
Tested on: all bacterial strains
Assay: MIC screening, summary for all bacterial strains
Format: cell-based
Protocol: A comparative assessment of the spectrum of antibacterial action was carried out on archival and clinical strains of gram-positive and gram-negative microorganisms in accordance with the [Opredeleniye chuvstvitel'nosti mikroorganizmov k antibakterial'nym preparatam (Metodicheskiye ukazaniya MUK 4.2.1890-04). Utverzhdeny i vvedeny v deystviye Glavnym gosudarstvennym sanitarnym vrachom Rossiyskoy Federatsii G. G. Onishchenko 04.03.2004 g. Determination of the sensitivity of microorganisms to antibacterial drugs (Guidelines MUK 4.2.1890-04). Approved and put into effect by the Chief State Sanitary Doctor of the Russian Federation G. G. Onishchenko on 4 Mar. 2004].
The value of the minimum inhibitory concentration (MIC) was determined by the method of serial dilutions on Müller-Hinton broth using 96-well sterile plates. […] The growth of cultures was assessed visually, comparing the growth of microorganisms in the presence of test compounds with the growth of culture without them. […] The first lowest concentration of the studied substance (from a series of consecutive dilutions), where bacterial growth is not visually determined, is considered to be the minimum inhibitory concentration (MIC). MIC was determined by the method of serial dilutions in broth with increment=2, so the differences of neighboring dilutions are not considered to be significant. […]

“alkyldimethyl(phenylmethyl) ammonium chloride [Benzalconium chloride]” showed an MIC92 of less than 64 µg/mL.

Source: patent US11014934B2, “Antiseptic drug” (AO “TATKHIMFARMPREPARATY”, priority 2017, dated 2021)
